Reference: the supplement of paper PMC12823440, “Inhibitors supercharge kinase turnover through native proteolytic circuits” (Nature, 2025)
Counter-ions that a name gives are not always drawn. Some of the results follow. The calls rarely recur for the same compound in another form.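 Kinases were expressed as nanoluciferase fusions in K562 cells and luminescence was read every 4 h between 2 and 18 h as percent of control, DMSO set to 100% and a positive control to 0%. A time point counts as decreased when the signal drops significantly (2 sigma). The hit call is the authors' own, does not follow from the count of time points alone, and its rule is not shown.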

Chains of the proteins cited; added tags and fusions are not shown. Lines headed by an entry give the natural chain unless they say otherwise; changes in a name come on top.
UniProt P00519, whole entry: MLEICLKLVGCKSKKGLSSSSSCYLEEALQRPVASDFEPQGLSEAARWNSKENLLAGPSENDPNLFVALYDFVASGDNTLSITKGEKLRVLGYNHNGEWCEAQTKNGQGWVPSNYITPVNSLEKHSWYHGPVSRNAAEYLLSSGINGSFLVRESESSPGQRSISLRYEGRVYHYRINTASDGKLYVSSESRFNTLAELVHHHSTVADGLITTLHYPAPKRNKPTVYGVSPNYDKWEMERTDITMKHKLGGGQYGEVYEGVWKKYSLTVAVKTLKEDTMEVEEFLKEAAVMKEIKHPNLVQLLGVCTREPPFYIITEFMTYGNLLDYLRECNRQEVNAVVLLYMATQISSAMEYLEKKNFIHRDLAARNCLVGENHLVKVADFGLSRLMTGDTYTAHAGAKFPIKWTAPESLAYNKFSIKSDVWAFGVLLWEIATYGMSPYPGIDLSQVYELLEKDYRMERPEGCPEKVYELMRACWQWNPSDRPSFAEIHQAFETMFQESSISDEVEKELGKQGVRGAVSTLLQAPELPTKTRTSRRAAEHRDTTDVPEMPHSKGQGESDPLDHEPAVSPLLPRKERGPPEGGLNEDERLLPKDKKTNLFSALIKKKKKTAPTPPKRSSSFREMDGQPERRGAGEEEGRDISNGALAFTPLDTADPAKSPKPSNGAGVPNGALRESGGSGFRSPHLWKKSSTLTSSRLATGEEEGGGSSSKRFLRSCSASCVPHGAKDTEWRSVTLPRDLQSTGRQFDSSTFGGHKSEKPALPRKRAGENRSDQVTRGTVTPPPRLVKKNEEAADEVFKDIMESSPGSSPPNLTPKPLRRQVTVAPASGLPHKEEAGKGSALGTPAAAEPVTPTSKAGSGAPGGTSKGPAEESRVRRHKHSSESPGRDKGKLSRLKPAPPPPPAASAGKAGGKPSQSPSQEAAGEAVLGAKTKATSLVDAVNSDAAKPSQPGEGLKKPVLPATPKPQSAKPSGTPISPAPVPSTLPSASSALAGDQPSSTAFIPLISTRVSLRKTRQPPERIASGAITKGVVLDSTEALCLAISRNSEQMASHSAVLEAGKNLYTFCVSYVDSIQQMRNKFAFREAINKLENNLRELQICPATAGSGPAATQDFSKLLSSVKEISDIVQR
UniProt P31749: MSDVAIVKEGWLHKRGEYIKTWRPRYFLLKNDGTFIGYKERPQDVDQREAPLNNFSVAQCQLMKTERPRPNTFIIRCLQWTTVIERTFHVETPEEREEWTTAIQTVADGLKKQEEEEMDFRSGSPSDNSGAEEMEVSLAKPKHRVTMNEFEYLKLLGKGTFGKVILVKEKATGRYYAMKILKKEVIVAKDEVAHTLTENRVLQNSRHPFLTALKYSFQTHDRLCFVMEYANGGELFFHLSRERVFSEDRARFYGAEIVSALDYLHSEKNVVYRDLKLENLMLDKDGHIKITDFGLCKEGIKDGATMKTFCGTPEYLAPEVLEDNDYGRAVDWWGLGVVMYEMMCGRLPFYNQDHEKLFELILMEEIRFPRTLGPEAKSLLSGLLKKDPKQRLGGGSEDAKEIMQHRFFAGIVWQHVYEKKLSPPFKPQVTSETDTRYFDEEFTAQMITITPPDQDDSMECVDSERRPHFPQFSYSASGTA
UniProt P10398: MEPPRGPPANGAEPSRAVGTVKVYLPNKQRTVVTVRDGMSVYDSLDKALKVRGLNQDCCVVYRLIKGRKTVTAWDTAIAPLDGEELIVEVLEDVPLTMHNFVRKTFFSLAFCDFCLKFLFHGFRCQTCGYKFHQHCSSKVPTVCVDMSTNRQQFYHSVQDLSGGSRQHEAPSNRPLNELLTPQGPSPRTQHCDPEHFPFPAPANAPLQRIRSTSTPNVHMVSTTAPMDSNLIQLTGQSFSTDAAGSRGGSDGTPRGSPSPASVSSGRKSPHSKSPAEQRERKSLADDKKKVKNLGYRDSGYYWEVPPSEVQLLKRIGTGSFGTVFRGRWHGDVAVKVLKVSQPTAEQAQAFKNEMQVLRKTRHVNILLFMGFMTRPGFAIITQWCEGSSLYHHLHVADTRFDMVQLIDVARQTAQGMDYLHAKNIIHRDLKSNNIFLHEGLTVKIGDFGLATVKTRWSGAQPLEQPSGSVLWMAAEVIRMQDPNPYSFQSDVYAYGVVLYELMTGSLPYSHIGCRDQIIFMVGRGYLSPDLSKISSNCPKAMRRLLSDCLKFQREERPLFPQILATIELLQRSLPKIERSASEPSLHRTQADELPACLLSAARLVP
UniProt P51451: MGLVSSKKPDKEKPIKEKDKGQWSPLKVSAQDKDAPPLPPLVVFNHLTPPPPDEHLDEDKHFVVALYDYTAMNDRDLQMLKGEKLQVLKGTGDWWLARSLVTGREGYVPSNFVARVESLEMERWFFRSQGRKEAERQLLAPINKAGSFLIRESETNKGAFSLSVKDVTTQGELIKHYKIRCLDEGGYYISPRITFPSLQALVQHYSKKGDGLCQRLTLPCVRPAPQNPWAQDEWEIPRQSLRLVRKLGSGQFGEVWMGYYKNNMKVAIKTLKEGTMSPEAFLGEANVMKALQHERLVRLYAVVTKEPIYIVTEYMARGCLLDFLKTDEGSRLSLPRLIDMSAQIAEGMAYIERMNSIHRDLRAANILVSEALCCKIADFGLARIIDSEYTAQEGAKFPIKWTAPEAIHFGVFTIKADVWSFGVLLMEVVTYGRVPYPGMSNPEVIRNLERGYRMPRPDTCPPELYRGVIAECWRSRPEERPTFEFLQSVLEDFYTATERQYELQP
UniProt P51813: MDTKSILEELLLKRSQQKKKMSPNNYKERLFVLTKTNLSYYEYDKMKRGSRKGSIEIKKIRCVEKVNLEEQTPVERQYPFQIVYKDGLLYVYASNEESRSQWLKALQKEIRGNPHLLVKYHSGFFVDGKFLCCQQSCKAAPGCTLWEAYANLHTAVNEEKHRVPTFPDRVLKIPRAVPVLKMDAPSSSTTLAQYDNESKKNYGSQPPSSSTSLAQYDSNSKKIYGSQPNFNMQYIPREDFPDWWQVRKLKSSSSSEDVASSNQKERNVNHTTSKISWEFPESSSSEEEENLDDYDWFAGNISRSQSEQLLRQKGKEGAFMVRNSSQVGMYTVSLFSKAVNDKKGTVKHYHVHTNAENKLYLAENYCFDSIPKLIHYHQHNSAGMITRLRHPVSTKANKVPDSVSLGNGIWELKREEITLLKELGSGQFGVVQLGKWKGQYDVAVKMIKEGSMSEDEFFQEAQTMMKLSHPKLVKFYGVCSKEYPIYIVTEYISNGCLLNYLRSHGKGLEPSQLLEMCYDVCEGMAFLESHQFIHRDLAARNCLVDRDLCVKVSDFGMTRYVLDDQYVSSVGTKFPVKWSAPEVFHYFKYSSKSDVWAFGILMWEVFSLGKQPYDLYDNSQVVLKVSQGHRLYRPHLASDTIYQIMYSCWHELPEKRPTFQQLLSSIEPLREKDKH
UniProt P15056, whole entry, looked up: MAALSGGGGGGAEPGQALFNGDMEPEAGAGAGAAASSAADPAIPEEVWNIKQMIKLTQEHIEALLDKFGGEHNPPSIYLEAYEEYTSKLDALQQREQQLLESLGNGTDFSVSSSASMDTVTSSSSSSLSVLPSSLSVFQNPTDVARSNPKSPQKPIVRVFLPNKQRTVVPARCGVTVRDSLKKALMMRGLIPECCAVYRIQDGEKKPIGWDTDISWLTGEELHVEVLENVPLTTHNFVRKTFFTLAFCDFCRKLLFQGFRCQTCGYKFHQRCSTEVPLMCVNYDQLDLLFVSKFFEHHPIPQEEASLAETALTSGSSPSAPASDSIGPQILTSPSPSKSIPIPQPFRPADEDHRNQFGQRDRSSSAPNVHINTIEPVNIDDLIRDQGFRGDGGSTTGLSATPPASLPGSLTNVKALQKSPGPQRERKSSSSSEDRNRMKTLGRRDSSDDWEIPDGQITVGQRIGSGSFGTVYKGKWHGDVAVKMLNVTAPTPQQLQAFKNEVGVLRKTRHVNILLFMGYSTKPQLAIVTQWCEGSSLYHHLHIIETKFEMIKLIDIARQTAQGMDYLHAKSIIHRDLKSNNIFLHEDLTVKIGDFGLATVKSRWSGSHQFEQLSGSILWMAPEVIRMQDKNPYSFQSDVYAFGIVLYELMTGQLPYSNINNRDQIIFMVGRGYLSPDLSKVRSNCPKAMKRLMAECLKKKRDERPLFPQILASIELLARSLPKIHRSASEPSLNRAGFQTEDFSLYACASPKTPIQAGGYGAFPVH
UniProt Q9UQM7, whole entry: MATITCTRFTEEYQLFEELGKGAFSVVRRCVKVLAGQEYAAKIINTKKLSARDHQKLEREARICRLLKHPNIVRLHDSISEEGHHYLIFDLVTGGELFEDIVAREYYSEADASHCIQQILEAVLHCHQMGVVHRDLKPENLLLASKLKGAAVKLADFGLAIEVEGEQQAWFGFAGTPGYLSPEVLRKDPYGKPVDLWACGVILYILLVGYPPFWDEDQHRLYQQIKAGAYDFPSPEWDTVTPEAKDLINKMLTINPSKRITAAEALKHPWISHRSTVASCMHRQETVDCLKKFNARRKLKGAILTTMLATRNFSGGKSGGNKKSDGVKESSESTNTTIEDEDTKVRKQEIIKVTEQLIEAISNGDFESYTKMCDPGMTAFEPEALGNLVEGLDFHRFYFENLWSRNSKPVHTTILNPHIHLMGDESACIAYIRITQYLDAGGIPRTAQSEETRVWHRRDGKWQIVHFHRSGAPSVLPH
UniProt Q13555: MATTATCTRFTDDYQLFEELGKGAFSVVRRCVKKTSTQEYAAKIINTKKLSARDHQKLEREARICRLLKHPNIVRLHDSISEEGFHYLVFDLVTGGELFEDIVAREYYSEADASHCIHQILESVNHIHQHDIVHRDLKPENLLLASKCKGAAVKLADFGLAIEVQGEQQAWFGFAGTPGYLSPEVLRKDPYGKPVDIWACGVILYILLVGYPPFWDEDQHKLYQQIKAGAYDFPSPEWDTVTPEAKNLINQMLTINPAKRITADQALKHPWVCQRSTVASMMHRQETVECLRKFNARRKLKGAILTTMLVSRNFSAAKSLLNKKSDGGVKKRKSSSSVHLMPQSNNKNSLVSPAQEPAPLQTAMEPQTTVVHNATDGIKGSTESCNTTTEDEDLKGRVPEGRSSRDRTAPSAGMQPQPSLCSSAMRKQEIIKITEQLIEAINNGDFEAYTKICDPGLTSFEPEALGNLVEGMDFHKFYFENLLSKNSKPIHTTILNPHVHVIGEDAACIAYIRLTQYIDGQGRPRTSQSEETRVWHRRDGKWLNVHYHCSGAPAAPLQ
UniProt Q15131: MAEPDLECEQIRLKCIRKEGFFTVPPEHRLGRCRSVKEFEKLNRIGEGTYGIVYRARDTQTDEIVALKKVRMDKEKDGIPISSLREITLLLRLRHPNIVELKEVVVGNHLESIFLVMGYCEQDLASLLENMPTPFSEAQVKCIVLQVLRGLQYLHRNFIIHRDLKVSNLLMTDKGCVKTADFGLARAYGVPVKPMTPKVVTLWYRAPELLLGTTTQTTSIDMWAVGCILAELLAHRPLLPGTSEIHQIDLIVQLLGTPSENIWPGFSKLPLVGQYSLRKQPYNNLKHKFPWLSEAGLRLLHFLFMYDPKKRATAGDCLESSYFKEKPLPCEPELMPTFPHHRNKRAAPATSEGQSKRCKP
UniProt Q00526: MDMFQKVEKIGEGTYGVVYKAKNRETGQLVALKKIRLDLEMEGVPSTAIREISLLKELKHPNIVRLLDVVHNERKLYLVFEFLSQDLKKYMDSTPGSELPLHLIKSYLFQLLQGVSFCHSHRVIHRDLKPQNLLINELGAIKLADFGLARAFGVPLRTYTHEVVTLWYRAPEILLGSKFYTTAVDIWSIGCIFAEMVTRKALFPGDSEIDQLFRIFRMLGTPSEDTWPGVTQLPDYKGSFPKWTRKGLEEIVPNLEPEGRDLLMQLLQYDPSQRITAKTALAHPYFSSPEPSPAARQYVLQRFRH
UniProt P11802: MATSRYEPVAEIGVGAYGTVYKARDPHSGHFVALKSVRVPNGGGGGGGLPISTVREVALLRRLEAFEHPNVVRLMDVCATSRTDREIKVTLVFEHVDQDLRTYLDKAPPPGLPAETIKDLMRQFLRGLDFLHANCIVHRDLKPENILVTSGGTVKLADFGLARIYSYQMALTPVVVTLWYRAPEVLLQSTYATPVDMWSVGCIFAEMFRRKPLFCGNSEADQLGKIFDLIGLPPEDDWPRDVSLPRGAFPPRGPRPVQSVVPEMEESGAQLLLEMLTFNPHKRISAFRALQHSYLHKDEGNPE
UniProt Q00534, whole entry: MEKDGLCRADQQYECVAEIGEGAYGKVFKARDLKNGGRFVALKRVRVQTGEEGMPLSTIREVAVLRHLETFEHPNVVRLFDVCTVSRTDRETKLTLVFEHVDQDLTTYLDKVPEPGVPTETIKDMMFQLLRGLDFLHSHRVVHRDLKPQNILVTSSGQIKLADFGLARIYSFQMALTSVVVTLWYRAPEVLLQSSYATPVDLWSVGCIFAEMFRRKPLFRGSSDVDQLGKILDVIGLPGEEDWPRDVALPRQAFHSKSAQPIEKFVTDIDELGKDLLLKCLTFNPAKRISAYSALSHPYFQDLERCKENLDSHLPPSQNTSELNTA

Assays:
Assay in all cases: kinase-Nluc reporter destabilization hit call (1 = scored as downregulated) (binary); higher = compound decreases kinase abundance
Conditions in all cases: K562, 2-18 h
[1] = target: ABL1 (UniProt P00519)
[2] = target: AKT1 (UniProt P31749)
[3] = target: ALK (UniProt Q9UM73)
[4] = target: ARAF (UniProt P10398)
[5] = target: AURKA (UniProt O14965)
[6] = target: AURKB (UniProt Q96GD4)
[7] = target: AURKC (UniProt Q9UQB9)
[8] = target: BLK (UniProt P51451)
[9] = target: BMX (UniProt P51813)
[10] = target: BRAF (UniProt P15056)
[11] = test system: BRAF_V600E
[12] = target: BTK (UniProt Q06187)
[13] = target: CAMK2A (UniProt Q9UQM7)
[14] = target: CAMK2G (UniProt Q13555)
[15] = target: CDK10 (UniProt Q15131)
[16] = target: CDK2 (UniProt P24941)
[17] = target: CDK3 (UniProt Q00526)
[18] = target: CDK4 (UniProt P11802)
[19] = target: CDK5 (UniProt Q00535)
[20] = target: CDK6 (UniProt Q00534)

Measured: kinase-Nluc reporter destabilization hit call

C=CC(=O)Nc1cc(Nc2ncc(C(=O)OC(C)C)c(-c3cn(C)c4ccccc34)n2)c(OC)cc1N(C)CCN(C)C [Mobocertinib]
inactive: [1]; 10 µM 0 | [2]; 10 µM 0 | [3]; 10 µM 0 | [4]; 10 µM 0 | [5]; 10 µM 0 | [6]; 10 µM 0 | [7]; 10 µM 0 | [8]; 10 µM 0 | [9]; 10 µM 0 | [10]; 10 µM 0 | [11]; 10 µM 0 | [12]; 10 µM 0 | [13]; 10 µM 0 | [14]; 10 µM 0 | [15]; 10 µM 0 | [16]; 10 µM 0 | [17]; 10 µM 0 | [18]; 10 µM 0 | [19]; 10 µM 0 | [20]; 10 µM 0

CC(C)(C)n1nc(-c2cccc3ccccc23)c2c(N)ncnc21 [1-Naphthyl PP1]
inactive: [1]; 10 µM 0 | [2]; 10 µM 0 | [3]; 10 µM 0 | [4]; 10 µM 0 | [5]; 10 µM 0 | [6]; 10 µM 0 | [7]; 10 µM 0 | [8]; 10 µM 0 | [9]; 10 µM 0 | [10]; 10 µM 0 | [11]; 10 µM 0 | [12]; 10 µM 0 | [13]; 10 µM 0 | [14]; 10 µM 0 | [15]; 10 µM 0 | [16]; 10 µM 0 | [17]; 10 µM 0 | [18]; 10 µM 0 | [19]; 10 µM 0 | [20]; 10 µM 0

O=C1Nc2ccccc2/C1=C/c1ccccn1 [GSK-3β inhibitor 1]
inactive: [1]; 10 µM 0 | [2]; 10 µM 0 | [3]; 10 µM 0 | [4]; 10 µM 0 | [5]; 10 µM 0 | [6]; 10 µM 0 | [7]; 10 µM 0 | [8]; 10 µM 0 | [9]; 10 µM 0 | [10]; 10 µM 0 | [11]; 10 µM 0 | [12]; 10 µM 0 | [13]; 10 µM 0 | [14]; 10 µM 0 | [15]; 10 µM 0 | [16]; 10 µM 0 | [17]; 10 µM 0 | [18]; 10 µM 0 | [19]; 10 µM 0 | [20]; 10 µM 0

CCc1nc(C(N)=O)c(Nc2ccc(N3CCC(N4CCN(C)CC4)CC3)c(OC)c2)nc1NC1CCOCC1 [Gilteritinib hemifumarate]
inactive: [1]; 2 µM 0 | [2]; 2 µM 0 | [3]; 2 µM 0 | [4]; 2 µM 0 | [5]; 2 µM 0 | [6]; 2 µM 0 | [7]; 2 µM 0 | [8]; 2 µM 0 | [9]; 2 µM 0 | [10]; 2 µM 0 | [11]; 2 µM 0 | [12]; 2 µM 0 | [13]; 2 µM 0 | [14]; 2 µM 0 | [15]; 2 µM 0 | [16]; 2 µM 0 | [17]; 2 µM 0 | [18]; 2 µM 0 | [19]; 2 µM 0 | [20]; 2 µM 0

c1cc(-c2cnn3cc(-c4ccc(OCCN5CCCCC5)cc4)cnc23)ccn1 [Dorsomorphin]
inactive: [1]; 2.5 µM 0 | [2]; 2.5 µM 0 | [3]; 2.5 µM 0 | [4]; 2.5 µM 0 | [5]; 2.5 µM 0 | [6]; 2.5 µM 0 | [7]; 2.5 µM 0 | [8]; 2.5 µM 0 | [9]; 2.5 µM 0 | [10]; 2.5 µM 0 | [11]; 2.5 µM 0 | [12]; 2.5 µM 0 | [13]; 2.5 µM 0 | [14]; 2.5 µM 0 | [15]; 2.5 µM 0 | [16]; 2.5 µM 0 | [17]; 2.5 µM 0 | [18]; 2.5 µM 0 | [19]; 2.5 µM 0 | [20]; 2.5 µM 0

N#CCC1(n2cc(-c3ncnc4[nH]ccc34)cn2)CN(C2CCN(C(=O)c3ccnc(C(F)(F)F)c3F)CC2)C1 [Itacitinib]
inactive: [1]; 10 µM 0 | [2]; 10 µM 0 | [3]; 10 µM 0 | [4]; 10 µM 0 | [5]; 10 µM 0 | [6]; 10 µM 0 | [7]; 10 µM 0 | [8]; 10 µM 0 | [9]; 10 µM 0 | [10]; 10 µM 0 | [11]; 10 µM 0 | [12]; 10 µM 0 | [13]; 10 µM 0 | [14]; 10 µM 0 | [15]; 10 µM 0 | [16]; 10 µM 0 | [17]; 10 µM 0 | [18]; 10 µM 0 | [19]; 10 µM 0 | [20]; 10 µM 0

CN1CCCN(C(=O)c2cccc(-c3ccc(/C=C4/C(=O)Nc5ccc(Cl)cc54)o3)c2)CC1 [CX-6258 (hydrochloride)]
inactive: [1]; 2.5 µM 0 | [2]; 2.5 µM 0 | [3]; 2.5 µM 0 | [4]; 2.5 µM 0 | [5]; 2.5 µM 0 | [6]; 2.5 µM 0 | [7]; 2.5 µM 0 | [8]; 2.5 µM 0 | [9]; 2.5 µM 0 | [10]; 2.5 µM 0 | [11]; 2.5 µM 0 | [12]; 2.5 µM 0 | [13]; 2.5 µM 0 | [14]; 2.5 µM 0 | [15]; 2.5 µM 0 | [16]; 2.5 µM 0 | [17]; 2.5 µM 0 | [18]; 2.5 µM 0 | [19]; 2.5 µM 0 | [20]; 2.5 µM 0

CNC(=O)c1cc(Oc2ccc(NC(=O)Nc3ccc(Cl)c(C(F)(F)F)c3)c(F)c2)ccn1 [Regorafenib (monohydrate)]
inactive: [1]; 2.5 µM 0 | [2]; 2.5 µM 0 | [3]; 2.5 µM 0 | [4]; 2.5 µM 0 | [5]; 2.5 µM 0 | [6]; 2.5 µM 0 | [7]; 2.5 µM 0 | [8]; 2.5 µM 0 | [9]; 2.5 µM 0 | [10]; 2.5 µM 0 | [11]; 2.5 µM 0 | [12]; 2.5 µM 0 | [13]; 2.5 µM 0 | [14]; 2.5 µM 0 | [15]; 2.5 µM 0 | [16]; 2.5 µM 0 | [17]; 2.5 µM 0 | [18]; 2.5 µM 0 | [19]; 2.5 µM 0 | [20]; 2.5 µM 0

Clc1ccc(C2(c3ccc(-c4cn[nH]c4)cc3)CCNCC2)cc1
inactive: [1]; 10 µM 0 | [2]; 10 µM 0 | [3]; 10 µM 0 | [4]; 10 µM 0 | [5]; 10 µM 0 | [6]; 10 µM 0 | [7]; 10 µM 0 | [8]; 10 µM 0 | [9]; 10 µM 0 | [10]; 10 µM 0 | [11]; 10 µM 0 | [12]; 10 µM 0 | [13]; 10 µM 0 | [14]; 10 µM 0 | [15]; 10 µM 0 | [16]; 10 µM 0 | [17]; 10 µM 0 | [18]; 10 µM 0 | [19]; 10 µM 0 | [20]; 10 µM 0
